# For at least one entry, the source does not settle the construct or the ends of the probe.
# Test system: SlREV (1-264) (Solanum lycopersicum)
# Experiment: EMSA
# Conditions: no DTM, binding is inhibited dose-dependently by wild-type DTM (1, 2, 4 uL), less by DTM L8F and DTM L8F,L22A; LightShift EMSA kit binding buffer; 1 uL ivt SlREV; 20 min on ice with DTM, then 20 min at room temperature with DNA; 6% native PAGE; salt and pH not stated; protein translated in vitro; protein details: C-terminal HA (from cloning primer K-REV-HA-N-R); label: Cy5
sequence,measurement,value
CAGATCTGTAATGATTACGAGAAT (double strand) [HB9 (HB-9) duplex],binding result,binds

# Reference: paper PMC6478692
